Primary screen of a compound library

Sequences of proteins named here, by UniProt entry; tags and fusion partners are left off. Residues count along the entry.
UniProt Q4DA54, 1-478: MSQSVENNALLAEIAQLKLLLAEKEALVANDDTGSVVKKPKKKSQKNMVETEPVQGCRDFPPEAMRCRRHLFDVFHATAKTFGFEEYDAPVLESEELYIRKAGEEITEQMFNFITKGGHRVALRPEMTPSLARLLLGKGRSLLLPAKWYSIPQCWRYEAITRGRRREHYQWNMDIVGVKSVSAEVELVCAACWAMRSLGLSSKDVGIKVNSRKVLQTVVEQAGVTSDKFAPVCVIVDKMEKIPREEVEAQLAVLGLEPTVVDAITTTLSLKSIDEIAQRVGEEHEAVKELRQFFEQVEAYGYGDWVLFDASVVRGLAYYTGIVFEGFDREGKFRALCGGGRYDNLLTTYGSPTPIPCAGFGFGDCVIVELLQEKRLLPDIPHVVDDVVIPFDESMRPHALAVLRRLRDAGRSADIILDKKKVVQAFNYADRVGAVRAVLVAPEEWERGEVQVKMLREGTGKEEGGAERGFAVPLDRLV
UniProt A4I591, 1-473: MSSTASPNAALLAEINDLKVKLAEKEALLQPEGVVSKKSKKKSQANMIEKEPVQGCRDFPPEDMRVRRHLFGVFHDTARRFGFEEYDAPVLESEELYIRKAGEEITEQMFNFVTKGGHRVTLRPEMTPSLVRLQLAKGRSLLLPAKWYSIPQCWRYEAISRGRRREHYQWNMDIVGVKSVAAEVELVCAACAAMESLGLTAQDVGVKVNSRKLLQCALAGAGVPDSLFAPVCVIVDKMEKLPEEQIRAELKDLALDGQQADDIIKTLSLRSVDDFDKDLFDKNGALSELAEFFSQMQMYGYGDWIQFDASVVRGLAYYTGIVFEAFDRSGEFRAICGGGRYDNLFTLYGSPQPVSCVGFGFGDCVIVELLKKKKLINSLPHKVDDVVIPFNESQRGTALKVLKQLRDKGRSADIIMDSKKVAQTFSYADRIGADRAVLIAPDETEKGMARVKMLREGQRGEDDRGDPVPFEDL

Source: ChEMBL document CHEMBL3988442, “University of Dundee, Small-Polar-MMV Screening Library” (2021).

Results are given as percent effect. How 0% and 100% were set is not recorded. Most values in the screen are low, and negative values occur. Compounds were drawn at random from those tested, without regard to their results. A dash means the value is not listed here; it may have been measured.

A: 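Assay of Toxoplasma gondii numbers, read through their beta-galactosidase reporter with a colour substrate. Tested at 10 µM. Higher reads as fewer parasites (inferred from which compounds were picked for retests). Of about 67,000 compounds tested this way, about 260 (0.38%) reached 50% or more in at least one test.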
B: 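Enzyme assay of histidyl-tRNA synthetase; the read-out is not stated. Target: Histidine-tRNA ligase, Trypanosoma cruzi CL Brener (UniProt Q4DA54). Compounds at 30 µM. Higher reads as stronger inhibition (inferred: compounds with an IC50 in retests scored well above the rest). About 69,000 compounds were tested under these conditions; 0.045% (about 31) showed 50% or more at least once.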
C: 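Enzyme assay of histidyl-tRNA synthetase; the read-out is not stated. Target: Histidine-tRNA ligase, Leishmania infantum (UniProt A4I591). Concentration: 30 µM. Higher reads as stronger inhibition (inferred: compounds with an IC50 in retests scored well above the rest). The assay is labelled LdHisRS but filed under L. infantum. About 69,000 compounds were tested under these conditions; 0.6% (about 410) showed 50% or more at least once.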
D: 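Whole-parasite assay of Trypanosoma brucei over 72 hours; the read-out is not stated. Concentration: 30 µM. Direction is inferred from retests: higher values go with stronger inhibition. Values scatter widely below zero; nearly all retest evidence comes from the higher of the two concentrations used. Of about 64,000 compounds tested this way, about 940 (1.5%) reached 50% or more in at least one test.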

compound | A | B | C | D
CNC(=O)[C@@H](c1ccccc1F)N1CCC[C@H]1C(=O)NC1CC1.Cl | 4.31% | - | - | 14.77%
O=C(NCC1CN(c2ncccn2)Cc2nccn2C1)c1cccnc1 (centres unmarked) | - | 2.454% | 11.97% | -
COCC1COCCC12CCN(Cc1cccs1)CC2.O=C(O)C(F)(F)F (centres unmarked) | -8.973% | - | - | -44.91%
O=C(Nc1cccc2c1CCCC2)c1cccnc1N1CCCNCC1 | 17.07% | 10.23% | 11.88% | -17.09%
CCOc1cccc2c1OCC(C(=O)NC(C)Cn1cccn1)=C2 (centres unmarked) | 0.5325% | 7.065% | -2.667% | -33.14%
Cn1nc(C2CCCN(Cc3cc(F)ccc3F)C2)c2nccnc21 (centres unmarked) | - | 2.128% | 5.208% | -
O=C(O)c1csc(S(=O)(=O)N2CCN(Cc3ccc(Cl)cc3)CC2)c1 | 2.032% | 5.882% | 11.67% | -48.72%
Cc1nc(NC2CC2)c2c(n1)c(C)nn2C | 16.43% | 9.845% | -97.75% | 4.24%
COC(=O)CC(NC(=O)c1cccc(CS(C)(=O)=O)c1)c1cccs1 (centres unmarked) | -8.532% | 8.38% | 13.16% | -9.969%
O=C(O)C(F)(F)F.[H][C@@]12CCC(=O)N(CCOC)[C@@]1([H])CCN2Cc1c(C)noc1C | 17.34% | - | - | -49.49%
COc1ccccc1C1(CNc2ncc(S(N)(=O)=O)s2)CC1 | 2.821% | 6.806% | 15.52% | -65.53%
COC(=O)Cc1cccc(NC(=O)Cc2ccon2)c1 | 1.947% | 5.195% | 3.333% | -65.06%
COCC(=O)N(Cc1cccc(C)c1)Cc1ccccc1OC | 0.9766% | -1.807% | 10.99% | -48.24%
CN(C)CCN1CCOCC2(CCN(Cc3ccc[nH]3)CC2)C1.O=C(O)C(F)(F)F.O=C(O)C(F)(F)F.O=C(O)C(F)(F)F | 0.4787% | - | - | -46.62%
COc1ccc(CNC(=O)CCc2c(C)noc2C)cc1F | -0.6739% | 6.931% | 18.48% | -0.3109%
Cc1ccc(CN(C)Cc2nc3c(cnn3C)c(=O)[nH]2)c(C)c1 | 1.01% | 4.167% | 0% | -6.709%
CC(C)COCCNC(=O)NC1CCCN(c2cnn(C)c2)C1 (centres unmarked) | -11.99% | 3.191% | -7.143% | -9.253%
COCCO[C@H]1CCN(Cc2cccs2)[C@H]1Cc1cccnc1 | - | 5.085% | 16.98% | -
CC(c1cc(F)ccc1F)N1CCN(Cc2nccn2C)CC1 (centres unmarked) | -15.14% | 4.035% | 12.5% | 14.89%
Cc1cc(C(=O)NC2CCc3c(ccc(=O)n3CC(C)C)C2)no1 (centres unmarked) | 1.867% | 6.667% | 9.434% | -9.823%
CCOCCOC(C)C(=O)Nc1nccn1Cc1ccccc1 (centres unmarked) | 7.067% | 4.762% | 9.302% | -8.82%
CSCc1noc(CN2CC3(CCCC3)CC2=O)n1 | -2.185% | 4.167% | 11.83% | -25.86%
Cc1cnn(CC(=O)N2CCCN(Cc3cnn(C(C)C)c3)CC2)c1 | -21.43% | 8.721% | 14.29% | -10.04%
CC(C)C(=O)N1CCN(C(=O)CCc2nnc(-c3ccccc3)o2)CC1 | - | 3.008% | -5.618% | -27.63%
Cc1ccc(NCc2cn3c(n2)CN(Cc2ccc(C)o2)CC3)nn1.O=C(O)C(F)(F)F.O=C(O)C(F)(F)F | -6.396% | - | - | -29.32%
Cc1nc(-c2ccsc2)ccc1C(=O)N(C)CC1CC1 | 8.513% | -0.4464% | 6.173% | 7.375%
CN(Cc1ccc(-n2ccnc2)cc1)Cc1ncc[nH]1 | -2.594% | 5.759% | 10.75% | 6.76%
CN(CC1(CO)CCOCC1)[C@@H]1c2ccccc2C2(CCNCC2)[C@H]1O | -2.02% | -0.8333% | 7.547% | 12.52%
Cc1cc(NC(=O)CCNC(C)(C)c2nc(C)c(C)s2)no1 | -8.991% | 6.329% | 16.67% | 0.8152%
[H][C@]12CCCCN1CCC[C@H]2CN(C)Cc1nnc(CC)o1 | -0.5187% | - | - | 12.31%
O=C1NC2(Cc3ccccc31)CN(CC1CCNCC1)C2 | -0.3412% | -5.325% | 12.41% | -
CN1CCN(C(=O)c2n[nH]c3c2CN(C2CCOCC2)CC3)CC1 | - | 3.883% | 9.615% | -
O=C(O)C(F)(F)F.[H][C@@]12CN(C(=O)c3ccc(C)nc3)C[C@]1([H])OCCN2C | 3.64% | - | - | 27.53%
CCOc1ccc(C(=O)N(Cc2cnn(C)c2)C(C)C)cc1OCC | -24.56% | 6.936% | 11.61% | -4.889%
COc1ccc(C)cc1C(=O)NC(CC(=O)O)c1cccs1 (centres unmarked) | -6.024% | 1.127% | 9.565% | 7.313%
c1ccc(CCN2CCN(C3CCOC4(CCOCC4)C3)CC2)cc1 (centres unmarked) | -10.24% | 6.468% | 20.48% | -49.21%
CSc1nc(O)c(Cc2ccccc2)c(=O)n1-c1ccccc1 | -7.368% | 3.867% | 2.41% | 7.251%

Some entries from above, unchanged:

compound,A,B,C,D
Cc1cc(C(=O)NC2CCc3c(ccc(=O)n3CC(C)C)C2)no1 (centres unmarked),1.867%,6.667%,9.434%,-9.823%
Cc1nc(NC2CC2)c2c(n1)c(C)nn2C,16.43%,9.845%,-97.75%,4.24%
CCOc1ccc(C(=O)N(Cc2cnn(C)c2)C(C)C)cc1OCC,-24.56%,6.936%,11.61%,-4.889%